Primary screen of a compound library

Protein sequences, listed by entry. Tags and fused reporters are not part of them. Residues count along the entry.
UniProt Q8IDJ8, 1-583: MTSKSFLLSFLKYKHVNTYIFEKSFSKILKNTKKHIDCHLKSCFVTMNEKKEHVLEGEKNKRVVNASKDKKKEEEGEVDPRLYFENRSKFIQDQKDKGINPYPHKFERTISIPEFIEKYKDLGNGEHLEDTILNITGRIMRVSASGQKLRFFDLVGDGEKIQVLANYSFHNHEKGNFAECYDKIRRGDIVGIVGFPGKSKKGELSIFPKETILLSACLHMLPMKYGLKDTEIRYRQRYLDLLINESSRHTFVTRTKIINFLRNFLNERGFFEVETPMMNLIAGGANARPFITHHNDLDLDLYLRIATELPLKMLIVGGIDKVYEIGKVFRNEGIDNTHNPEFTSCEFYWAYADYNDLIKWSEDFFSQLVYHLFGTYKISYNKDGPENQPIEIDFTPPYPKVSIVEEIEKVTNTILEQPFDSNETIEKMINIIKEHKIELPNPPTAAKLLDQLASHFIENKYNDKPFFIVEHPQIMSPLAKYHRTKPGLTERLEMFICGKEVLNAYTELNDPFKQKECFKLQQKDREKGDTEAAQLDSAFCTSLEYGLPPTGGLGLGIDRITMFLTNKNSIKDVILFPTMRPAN
UniProt P9WPC5, whole entry: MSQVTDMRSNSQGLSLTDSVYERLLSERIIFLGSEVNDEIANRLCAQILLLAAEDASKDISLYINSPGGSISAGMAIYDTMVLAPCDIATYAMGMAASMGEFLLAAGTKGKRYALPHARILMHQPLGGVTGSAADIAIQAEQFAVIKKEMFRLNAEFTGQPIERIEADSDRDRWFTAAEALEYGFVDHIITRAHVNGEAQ
UniProt P9WPC3, whole entry partner: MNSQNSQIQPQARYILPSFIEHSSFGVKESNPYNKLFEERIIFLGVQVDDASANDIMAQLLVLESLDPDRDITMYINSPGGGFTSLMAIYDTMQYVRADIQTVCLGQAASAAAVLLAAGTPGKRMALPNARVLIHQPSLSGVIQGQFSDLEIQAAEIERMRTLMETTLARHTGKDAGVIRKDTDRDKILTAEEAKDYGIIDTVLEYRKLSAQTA

Data taken from ChEMBL document CHEMBL3988442, “University of Dundee, Small-Polar-MMV Screening Library” (2021).

PfKRS1: 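Enzyme assay of the cytosolic lysyl-tRNA synthetase in 384-well plates, read by luminescence. Target: Lysine-tRNA ligase, Plasmodium falciparum 3D7 (UniProt Q8IDJ8). Tested at 30 µM. Higher reads as stronger inhibition, judged from the few compounds that gave an IC50. Of about 69,000 compounds tested this way, about 49 (0.071%) reached 50% or more in at least one test.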
ClpP1P2: 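ClpP1P2, Mycobacterium tuberculosis (UniProt P9WPC5 and UniProt P9WPC3). Protease assay of ClpP1P2, read by the AMC dye that it sets free. Compounds at 50 µM. Direction is inferred from only a few compounds that gave an IC50; most scored high, so higher reads as stronger inhibition. Most other retested compounds had strongly negative values. Size under these conditions: about 69,000 compounds, about 10 of them at 50% or above in at least one test.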

The filed quantity is “Percent Effect” (%). How 0% and 100% were set is not recorded. Most values in the screen are low, and negative values occur. Compounds were drawn at random from those tested, without regard to their results.

C[C@@H]1CN(Cc2cccnc2)C[C@]12CCN(CCN1CCCC1)C2=O gave PfKRS1: 2.443%; ClpP1P2: 14.95%. CCN(CCc1nc2cc(C)ccc2[nH]1)C(=O)[C@@H](N)COC read PfKRS1: -1.408%; ClpP1P2: -1.64%. For CS(=O)(=O)CCN1CC(c2ccccc2)(c2ccccc2)CCC1=O the result was PfKRS1: 0.3329%; ClpP1P2: 23.82%. For CC(=O)NC(C(=O)N1CCn2cncc2C1)C(C)C (stereo not drawn) the result was PfKRS1: 8.984%; ClpP1P2: 0.4007%. Result for CCOC(=O)N1CCN(C(=O)c2cc(OCC)c3ccoc3c2)CC1 was PfKRS1: 4.771%; ClpP1P2: -14.73%. For COCc1noc(-c2ccc(N3CCCC3c3ccc(F)cc3)nc2)n1 (stereo not drawn) the result was PfKRS1: 4.653%; ClpP1P2: -2.742%. With O=C(Nc1cccc2c1CCCC2)c1cccc(CN2CC[C@H](O)C2)c1 the screen gave PfKRS1: 7.587%; ClpP1P2: -0.1358%. Result for NC(=O)NC(=O)CCn1ccc(-c2ccc(F)cc2)n1 was PfKRS1: 9.661%; ClpP1P2: 0.08191%.

Result for CC(=O)N1CCOC(c2cncc(CCC(N)=O)n2)C1 (stereo not drawn) was PfKRS1: -0.7845%; ClpP1P2: -1.921%. With O=C(COC1CCCC1)N1C[C@@H]2COC[C@]2(COc2cccnc2)C1 the screen gave PfKRS1: 2.506%; ClpP1P2: 4.508%. With COCC(=O)N1CCCC1c1cccc(Cc2ccccc2F)n1 (stereo not drawn) the screen gave PfKRS1: 8.175%; ClpP1P2: 8.588%. With N#CC1CCCN(c2ncnc3c2CCN(Cc2ccccc2)CC3)C1 (stereo not drawn) the screen gave PfKRS1: -0.4539%; ClpP1P2: -26.99%. With c1coc(CN2Cc3ccnn3CC(COCC3CC3)C2)c1 (stereo not drawn) the screen gave PfKRS1: 2.288%; ClpP1P2: -6.5%. COCCN1CCN(CCS(C)(=O)=O)CC1C (stereo not drawn) gave PfKRS1: -1.661%; ClpP1P2: 12.4%. With Cc1cc(C)n(C2CCCN(C(=O)CCc3nccs3)C2)n1 (stereo not drawn) the screen gave PfKRS1: -1.11%; ClpP1P2: -3.27%. For CCS(=O)(=O)N1CCC(c2nnc(CN3CCCCC3)n2C)CC1 the result was PfKRS1: -1.169%; ClpP1P2: 7.547%.

Cc1noc(C)c1CN1CC[C@@H]2O[C@@H](COCC(C)C)CC[C@@H]21 gave PfKRS1: 2.61%; ClpP1P2: 1.406%. For O=C1C[C@H]2[C@@H](CCN2Cc2ccccn2)N1CCN1CCOCC1 the result was PfKRS1: 5.266%; ClpP1P2: 9.446%. With CCn1c(C)nnc1CN(C)C1CCN(Cc2c(C)noc2C)C1 (stereo not drawn) the screen gave PfKRS1: 0.1446%; ClpP1P2: 10.68%. Result for Cc1nc(N2CCOCC2)nc(C)c1NC(=O)Cc1ccc(Cl)cc1 was PfKRS1: 2.275%; ClpP1P2: -3.191%. For Cc1nc2c(c(NCC(O)C(F)(F)F)n1)CCNCC2 (stereo not drawn) the result was PfKRS1: -0.3329%; ClpP1P2: -7.493%. O=C(CNc1cccc2c1CCCC2)Nc1ccccc1Br read PfKRS1: 2.414%; ClpP1P2: 6.538%. Cn1cc(NS(=O)(=O)c2ccc(F)c(F)c2)ccc1=O read PfKRS1: -1.186%; ClpP1P2: 0.9719%. With O=C1CCc2cc(NC(=O)C3CCCN3c3nccs3)ccc2N1 (stereo not drawn) the screen gave PfKRS1: 0.3413%; ClpP1P2: -71.48%.

CC(O)CCN(C)S(=O)(=O)Cc1ccc(Cl)c(Cl)c1 (stereo not drawn) read PfKRS1: 2.464%; ClpP1P2: 4.409%. For CCN(CC)Cc1cnc2n1CCN(C1CCOC1)CC2 (stereo not drawn) the result was PfKRS1: 1.302%; ClpP1P2: -17.35%. CN(C)C(=O)c1csc(-c2ccoc2)n1 gave PfKRS1: 0.8035%; ClpP1P2: 13.02%. Cn1cccc1-c1cc(C(=O)N2CC(c3cccnc3)C2)[nH]n1 gave PfKRS1: -0.9282%; ClpP1P2: -16.76%. CN(CCSc1nncn1C(C)(C)C)c1ccccc1 gave PfKRS1: -1.36%; ClpP1P2: -7.853%. COc1ccc(CNc2cccnc2-n2cccn2)cc1OC read PfKRS1: 0.1777%; ClpP1P2: -2.598%. For Cc1nc(CN2CCCn3cnc(COC(C)C)c3C2)cs1 the result was PfKRS1: 4.087%; ClpP1P2: -5.081%. With CCn1nc(C)c(CN(CCOC)Cc2ccccn2)c1C the screen gave PfKRS1: 7.85%; ClpP1P2: -1.961%.

For CNC(=O)NCC(CO)Cc1cccc(OC(F)(F)F)c1 (stereo not drawn) the result was PfKRS1: -2.334%; ClpP1P2: -0.4576%. Result for COC(CNC(=O)C1CCN(S(C)(=O)=O)CC1)c1ccc(C)s1 (stereo not drawn) was PfKRS1: -0.6155%; ClpP1P2: -21.17%. With O=C(CCN1CCCCO1)N1CCC(CO)(Cc2ccccc2)CC1 the screen gave PfKRS1: 0.411%; ClpP1P2: -2.781%. CCc1ccc(CN2C[C@@H]3OCCN(c4ccnc(N(C)C)n4)[C@@H]3C2)o1 read PfKRS1: 0.3544%; ClpP1P2: -0.6785%. O=S1(=O)COCCN1Cc1ccc(F)cc1Cl gave PfKRS1: 5.152%; ClpP1P2: -5.8%. c1cnc(NCc2noc3c2CN(c2cnccn2)CC3)nc1 gave PfKRS1: 5.704%; ClpP1P2: -16.7%. COC1CCN(Cc2csc(C(C)C)n2)CC1 gave PfKRS1: 7.77%; ClpP1P2: -3.194%. CCc1cc(C(=O)N2CCC(C3CCN(c4ncccn4)CC3)C2)on1 (stereo not drawn) read PfKRS1: 3.351%; ClpP1P2: -10.91%.

CN1CC2(CCN(C(=O)Cc3ccc(O)c(F)c3)CC2)CC1=O read PfKRS1: 4.858%; ClpP1P2: -8.081%.

The first 2 entries again:

* C[C@@H]1CN(Cc2cccnc2)C[C@]12CCN(CCN1CCCC1)C2=O : PfKRS1: 2.443%; ClpP1P2: 14.95%
* CCN(CCc1nc2cc(C)ccc2[nH]1)C(=O)[C@@H](N)COC : PfKRS1: -1.408%; ClpP1P2: -1.64%